Assay results as given in paper PMC6134028, “Mutant FUS causes DNA ligation defects to inhibit oxidative damage repair in Amyotrophic Lateral Sclerosis” (Nature Communications, 2018).

Amino acid sequences for entries named in this document (tags omitted).
UniProt P35637: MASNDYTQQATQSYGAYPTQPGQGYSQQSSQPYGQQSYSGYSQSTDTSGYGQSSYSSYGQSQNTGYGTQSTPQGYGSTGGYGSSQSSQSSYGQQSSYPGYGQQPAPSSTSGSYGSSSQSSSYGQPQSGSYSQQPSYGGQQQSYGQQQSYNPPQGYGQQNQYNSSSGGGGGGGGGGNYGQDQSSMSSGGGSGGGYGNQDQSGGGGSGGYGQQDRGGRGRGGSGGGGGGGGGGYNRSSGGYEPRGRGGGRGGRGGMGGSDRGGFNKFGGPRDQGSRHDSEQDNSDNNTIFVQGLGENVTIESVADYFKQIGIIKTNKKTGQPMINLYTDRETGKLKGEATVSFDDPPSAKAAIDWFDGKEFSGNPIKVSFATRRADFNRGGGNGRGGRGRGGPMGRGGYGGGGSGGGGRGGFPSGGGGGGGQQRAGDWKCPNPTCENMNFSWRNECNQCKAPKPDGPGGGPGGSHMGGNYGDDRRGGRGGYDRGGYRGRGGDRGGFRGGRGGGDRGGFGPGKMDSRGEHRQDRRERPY
UniProt P18887: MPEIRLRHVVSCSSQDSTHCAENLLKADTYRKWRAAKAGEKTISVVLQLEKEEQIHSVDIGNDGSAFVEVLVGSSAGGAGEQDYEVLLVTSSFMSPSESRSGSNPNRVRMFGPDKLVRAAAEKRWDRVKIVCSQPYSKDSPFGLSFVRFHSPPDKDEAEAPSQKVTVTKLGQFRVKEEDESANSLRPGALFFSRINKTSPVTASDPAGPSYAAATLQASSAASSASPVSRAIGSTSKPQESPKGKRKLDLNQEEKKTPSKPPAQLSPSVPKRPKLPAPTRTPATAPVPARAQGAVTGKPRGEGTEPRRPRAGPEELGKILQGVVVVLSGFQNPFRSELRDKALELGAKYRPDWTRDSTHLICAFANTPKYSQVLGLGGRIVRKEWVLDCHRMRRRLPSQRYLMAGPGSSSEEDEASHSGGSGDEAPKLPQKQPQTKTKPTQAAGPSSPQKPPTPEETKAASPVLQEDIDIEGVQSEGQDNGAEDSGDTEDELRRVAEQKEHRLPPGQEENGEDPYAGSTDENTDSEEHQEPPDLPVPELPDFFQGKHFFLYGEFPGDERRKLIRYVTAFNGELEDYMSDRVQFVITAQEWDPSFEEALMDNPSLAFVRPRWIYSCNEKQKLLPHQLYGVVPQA
UniProt P09874: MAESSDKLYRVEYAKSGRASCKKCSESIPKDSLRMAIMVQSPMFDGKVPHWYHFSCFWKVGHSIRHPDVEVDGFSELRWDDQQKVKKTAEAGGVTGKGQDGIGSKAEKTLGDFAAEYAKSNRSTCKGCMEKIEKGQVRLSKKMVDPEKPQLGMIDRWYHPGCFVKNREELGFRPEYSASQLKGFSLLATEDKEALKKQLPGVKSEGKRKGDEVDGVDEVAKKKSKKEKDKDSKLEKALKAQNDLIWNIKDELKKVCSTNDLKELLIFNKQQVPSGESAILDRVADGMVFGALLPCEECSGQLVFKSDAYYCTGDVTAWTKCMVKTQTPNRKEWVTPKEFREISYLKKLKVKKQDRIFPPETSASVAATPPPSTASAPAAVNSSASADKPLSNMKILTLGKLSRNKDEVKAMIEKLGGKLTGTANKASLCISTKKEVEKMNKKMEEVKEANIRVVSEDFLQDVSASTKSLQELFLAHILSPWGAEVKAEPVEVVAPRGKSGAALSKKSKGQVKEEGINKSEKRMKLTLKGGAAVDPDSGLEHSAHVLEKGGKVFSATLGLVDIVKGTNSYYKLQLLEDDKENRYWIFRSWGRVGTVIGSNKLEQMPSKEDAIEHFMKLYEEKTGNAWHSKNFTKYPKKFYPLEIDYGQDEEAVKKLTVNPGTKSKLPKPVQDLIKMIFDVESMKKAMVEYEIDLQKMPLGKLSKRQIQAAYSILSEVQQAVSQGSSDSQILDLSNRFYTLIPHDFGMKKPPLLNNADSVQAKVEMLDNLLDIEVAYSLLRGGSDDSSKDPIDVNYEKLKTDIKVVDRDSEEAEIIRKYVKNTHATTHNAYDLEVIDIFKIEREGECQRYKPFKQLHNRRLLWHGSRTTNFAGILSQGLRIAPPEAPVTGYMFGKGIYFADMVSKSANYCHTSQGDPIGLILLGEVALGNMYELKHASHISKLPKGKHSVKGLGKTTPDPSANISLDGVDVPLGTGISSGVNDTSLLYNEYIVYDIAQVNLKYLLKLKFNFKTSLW

Molecular target: Fused in Sarcoma (FUS), endogenous (human (endogenous in SH-SY5Y and iPSC-derived motor neurons)) (UniProt P35637)
Assay: affinity purification with mass spectrometry; co-IP with a FUS antibody from GO-treated SH-SY5Y cells, mass spectrometry of the precipitate

| Substance | binding |
| --- | --- |
| XRCC1, endogenous (from UniProt P18887 1-633) | binds |
| poly(ADP-ribose) polymerase 1 (PARP1), endogenous (from UniProt P09874 1-1014) | binds |

No constants are given. Whether binding was seen depends on the method and setting. In cells and extracts the contact can be indirect. A yes stands for co-enrichment or nearness to the bait. Other partners may have been found.
